No constants are given. Whether binding was seen depends on the method and setting. Binding calls can cover weak binding; strength is not graded here. For some assays here: In cells and extracts the contact can be indirect.
T1: Importin 13 (two-hybrid bait, amino acids 1-963) (mouse) (UniProt Q8K0C1)
T1 sequence: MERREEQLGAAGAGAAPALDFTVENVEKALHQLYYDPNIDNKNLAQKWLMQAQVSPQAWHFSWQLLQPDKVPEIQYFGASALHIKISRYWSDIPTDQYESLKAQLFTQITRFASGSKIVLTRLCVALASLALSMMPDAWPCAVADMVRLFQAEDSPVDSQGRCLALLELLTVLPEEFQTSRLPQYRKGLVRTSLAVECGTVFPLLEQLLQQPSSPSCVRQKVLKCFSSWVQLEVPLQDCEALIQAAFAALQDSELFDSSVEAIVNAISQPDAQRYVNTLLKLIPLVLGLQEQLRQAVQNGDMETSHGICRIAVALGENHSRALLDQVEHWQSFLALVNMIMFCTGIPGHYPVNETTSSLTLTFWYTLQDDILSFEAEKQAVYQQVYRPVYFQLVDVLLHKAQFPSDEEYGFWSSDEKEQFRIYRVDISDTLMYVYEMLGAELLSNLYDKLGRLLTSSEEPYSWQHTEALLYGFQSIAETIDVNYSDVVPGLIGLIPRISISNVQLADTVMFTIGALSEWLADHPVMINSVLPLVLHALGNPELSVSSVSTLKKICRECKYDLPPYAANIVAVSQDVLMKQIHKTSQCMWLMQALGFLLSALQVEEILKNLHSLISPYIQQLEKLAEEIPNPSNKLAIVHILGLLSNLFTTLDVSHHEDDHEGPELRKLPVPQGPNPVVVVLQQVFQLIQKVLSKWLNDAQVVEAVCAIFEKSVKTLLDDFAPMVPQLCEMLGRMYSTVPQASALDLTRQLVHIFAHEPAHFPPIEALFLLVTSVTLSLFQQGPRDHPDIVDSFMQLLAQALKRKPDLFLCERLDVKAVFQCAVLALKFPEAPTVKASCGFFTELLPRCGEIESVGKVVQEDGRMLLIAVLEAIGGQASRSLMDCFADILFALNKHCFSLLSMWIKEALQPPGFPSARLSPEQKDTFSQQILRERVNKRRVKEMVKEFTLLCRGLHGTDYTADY


Key:
[1] = target: T1, Importin 13 (two-hybrid bait, amino acids 1-963) (mouse); assay: two-hybrid; screen by Hybrigenics; IPO13 amino acids 1-963 as bait, cDNA libraries from human lung, brain and testis as prey
GFP-nCLU = assay: co-IP; HeLa co-expressing GFP-nCLU and DsRed2-IPO13, with or without 125 uM H2O2 for 1 h before lysis; GFP-Trap resin; Western blot

| binding [1] | binding (GFP-nCLU) | Molecule |
| --- | --- | --- |
| binds | – | Tripartite Motif-Containing 26 (human) (domain or fragment) |
| – | binds | DsRed2-IPO13 (protein, UniProt Q8K0C1 1-963) MERREEQLGAAGAGAAPALDFTVENVEKALHQLYYDPNIDNKNLAQKWLMQAQVSPQAWHFSWQLLQPDKVPEIQYFGASALHIKISRYWSDIPTDQYESLKAQLFTQITRFASGSKIVLTRLCVALASLALSMMPDAWPCAVADMVRLFQAEDSPVDSQGRCLALLELLTVLPEEFQTSRLPQYRKGLVRTSLAVECGTVFPLLEQLLQQPSSPSCVRQKVLKCFSSWVQLEVPLQDCEALIQAAFAALQDSELFDSSVEAIVNAISQPDAQRYVNTLLKLIPLVLGLQEQLRQAVQNGDMETSHGICRIAVALGENHSRALLDQVEHWQSFLALVNMIMFCTGIPGHYPVNETTSSLTLTFWYTLQDDILSFEAEKQAVYQQVYRPVYFQLVDVLLHKAQFPSDEEYGFWSSDEKEQFRIYRVDISDTLMYVYEMLGAELLSNLYDKLGRLLTSSEEPYSWQHTEALLYGFQSIAETIDVNYSDVVPGLIGLIPRISISNVQLADTVMFTIGALSEWLADHPVMINSVLPLVLHALGNPELSVSSVSTLKKICRECKYDLPPYAANIVAVSQDVLMKQIHKTSQCMWLMQALGFLLSALQVEEILKNLHSLISPYIQQLEKLAEEIPNPSNKLAIVHILGLLSNLFTTLDVSHHEDDHEGPELRKLPVPQGPNPVVVVLQQVFQLIQKVLSKWLNDAQVVEAVCAIFEKSVKTLLDDFAPMVPQLCEMLGRMYSTVPQASALDLTRQLVHIFAHEPAHFPPIEALFLLVTSVTLSLFQQGPRDHPDIVDSFMQLLAQALKRKPDLFLCERLDVKAVFQCAVLALKFPEAPTVKASCGFFTELLPRCGEIESVGKVVQEDGRMLLIAVLEAIGGQASRSLMDCFADILFALNKHCFSLLSMWIKEALQPPGFPSARLSPEQKDTFSQQILRERVNKRRVKEMVKEFTLLCRGLHGTDYTADY |

Source: PMC9857240
